Patent publication US6395906B1, “Intermediates to pesticidal 1-arylpyrazoles” (Rhone-Poulenc Inc., priority 1995, dated 2002)
The name of at least one read-out is uncertain.

Key:
Type in all cases: in vivo
[1] = tested on: southern armyworm (Spodoptera eridania); assay: Southern armyworm (SAW) treated bean leaf test; conditions: bean leaves, 100 or 500 ppm; second instar larvae, five days
Method: (§1) For the tick, aphids, souther armyworm, tobacco budworm, house fly, Mexican bean beetle, American cockroach, cat flea, souther corn rootworm, western corn rootworm, black cutworm, and southern root-knot nematode, a solution or suspension was prepared by adding the test compound to a solution of dimethylformamide, acetone, emulsifiers which are alkylaryl polyether alcohols organic sulfonates, and water. The result was a 100 or 500 ppm concentration of the test compound.
Southern armyworm (SAW), Mexican bean beetle (MBB): Bean leaves were wet to runoff with the 100 or 500 ppm test compound formulation. As an untreated control, a water-acetone-DMF-emulsifier solution containing no test compound was also applied wet to runoff to bean leaves. Five or six randomly selected second instar southern armyworn larvae or Mexican bean bettle larvae were introduced into each plastic container with the dry treated leaves. The container was closed and held for five days. Larvae which were unable to move the length of the body, even upon stimulation by prodding, were considered dead.

[2] = tested on: house fly (Musca domestica); assay: House fly (HF) bait test; conditions: sucrose bait, 100 or 250 ppm; adult flies, mortality after 24 hours
Method: as §1
For house fly tests, the water-acetone-DMF-emulsifier solution was adjusted with a 20% by weight aqueous solution of sucrose to provide a final 100 or 250 ppm concentration of the test compound.
House fly (HF): Four to six day old adult house flies were used. The files were immobilized by anesthetizing with carbon dioxide. A bait cup was prepared which contained the 100 or 250 ppm test compound formulation/sucrose solution and one or two absorbent cotton pad(s). As an untreated control, a water-acetone-DMF-emulsifier-sucrose solution containing no test compound was applied in a similar manner. The bait cup was introduced inside the cage prior to admitting 12-25 anesthetized flies. Mortality was assessed after 24 hours.

[3] = tested on: southern corn rootworm (Diabrotica undecimpunctata howardi); assay: Southern corn rootworm (SCRW) soil test; conditions: soil concentration 2.5, 5, 6.75 or 10 ppm; mortality eight days after infestation
Method: as §1
For southern corn rootworm and black cutworm tests, the water-acetone-DMF-emulsifier solution was adjusted for a treatment rate of 2.5, 5, 6.75 or 10 ppm.
Southern corn rootworm (SCRW), Black cutworm (BCW): Corn seeds were placed in a glass jar and covered with dry sandy loam soil. The 500 ppm test formulation was applied for a soil concentration of 2.5, 5, 6.75 or 10 ppm. As an untreated control, an aliquot of a water-acetone-DMF-emulsifier solution containing no test compound was applied in a similar manner. After incubating covered for 24 hours, the soil was mixed and inoculated with approximately 25 southern corn rootworm eggs. Following an additional 48 hours, two late second to early third instar black cutworms were placed in the jar with a portion of insect diet. Eight days after infestation, mortality was assessed visually for cutworm and by Berlese funnel extraction for rootworm.

Compound	SAW [1]	HF [2]	SCRW [3]
CC(=O)c1c(S(=O)(=O)C(F)(F)F)c(C#N)nn1-c1c(Cl)cc(C(F)(F)F)cc1Cl [Compound 1, 5-Acetyl-3-cyano-1-(2,6-dichloro-4-trifluoromethylphenyl)-4-trifluoromethylsulfonylpyrazole]	+ (active against 1 or more insects described above up to 100% mortality. This activity is indicated by a “+”)	+ (active against 1 or more insects described above up to 100% mortality. This activity is indicated by a “+”)	+ (active against 1 or more insects described above up to 100% mortality. This activity is indicated by a “+”)
N#Cc1nn(-c2c(Cl)cc(C(F)(F)F)cc2Cl)c(C=O)c1SC(F)(F)F [Compound 2, 3-Cyano-1-(2,6-dichloro-4-trifluoromethylphenyl)-5-formyl-4-trifluoromethylthiopyrazole]	+ (active against 1 or more insects described above up to 100% mortality. This activity is indicated by a “+”)	+ (active against 1 or more insects described above up to 100% mortality. This activity is indicated by a “+”)	+ (active against 1 or more insects described above up to 100% mortality. This activity is indicated by a “+”)
COC(OC)c1c(SC(F)(F)F)c(C#N)nn1-c1c(Cl)cc(C(F)(F)F)cc1Cl [Compound 4, 3-Cyano-1-(2,6-dichloro-4-trifluoromethylphenyl)-5-dimethoxymethyl-4-trifluoromethylthiopyrazole]	+ (active against 1 or more insects described above up to 100% mortality. This activity is indicated by a “+”)	+ (active against 1 or more insects described above up to 100% mortality. This activity is indicated by a “+”)	+ (active against 1 or more insects described above up to 100% mortality. This activity is indicated by a “+”)
N#Cc1nn(-c2c(Cl)cc(C(F)(F)F)cc2Cl)c(CO)c1SC(F)(F)F [Compound 7, 3-Cyano-1-(2,6-dichloro-4-trifluoromethylphenyl)-5-(hydroxy)methyl-4-trifluoromethylthiopyrazole]	+ (active against 1 or more insects described above up to 100% mortality. This activity is indicated by a “+”)		
CC(O)c1c(SC(F)(F)F)c(C#N)nn1-c1c(Cl)cc(C(F)(F)F)cc1Cl (centres unmarked) [Compound 8, 3-Cyano-1-(2,6-dichloro-4-trifluoromethylphenyl)-5-(1-hydroxy)ethyl-4-trifluoromethylthiopyrazole]			+ (active against 1 or more insects described above up to 100% mortality. This activity is indicated by a “+”)
CC(=O)c1c(SC(F)(F)F)c(C#N)nn1-c1c(Cl)cc(C(F)(F)F)cc1Cl [Compound 9, 5-Acetyl-3-cyano-1-(2,6-dichloro-4-trifluoromethylphenyl)-4-trifluoromethylthiopyrazole]	+ (active against 1 or more insects described above up to 100% mortality. This activity is indicated by a “+”)		
CC(=O)c1c([S+]([O-])C(F)(F)F)c(C#N)nn1-c1c(Cl)cc(C(F)(F)F)cc1Cl (centres unmarked) [Compound 10, 5-Acetyl-3-cyano-1-(2,6-dichloro-4-trifluoromethylphenyl)-4-trifluoromethylsulfinylpyrazole]	+ (active against 1 or more insects described above up to 100% mortality. This activity is indicated by a “+”)		+ (active against 1 or more insects described above up to 100% mortality. This activity is indicated by a “+”)
N#Cc1nn(-c2c(Cl)cc(C(F)(F)F)cc2Cl)c(CO)c1[S+]([O-])C(F)(F)F (centres unmarked) [Compound 12, 3-Cyano-1-(2,6-dichloro-4-trifluoromethylphenyl)-5-(hydroxy)methyl-4-trifluoromethylsulfinylpyrazole]	+ (active against 1 or more insects described above up to 100% mortality. This activity is indicated by a “+”)	+ (active against 1 or more insects described above up to 100% mortality. This activity is indicated by a “+”)	+ (active against 1 or more insects described above up to 100% mortality. This activity is indicated by a “+”)
COC(OC)c1c([S+]([O-])C(F)(F)F)c(C#N)nn1-c1c(Cl)cc(C(F)(F)F)cc1Cl (centres unmarked) [Compound 13, 3-Cyano-1-(2,6-dichloro-4-trifluoromethylphenyl)-5-dimethoxymethyl-4-trifluoromethylsulfinylpyrazole]	+ (active against 1 or more insects described above up to 100% mortality. This activity is indicated by a “+”)	+ (active against 1 or more insects described above up to 100% mortality. This activity is indicated by a “+”)	+ (active against 1 or more insects described above up to 100% mortality. This activity is indicated by a “+”)
N#Cc1nn(-c2c(Cl)cc(C(F)(F)F)cc2Cl)c(C(O)C(F)(F)F)c1SC(F)(F)F (centres unmarked) [Compound 17, 3-Cyano-1-(2,6-dichloro-4-trifluoromethylphenyl)-5-(1-hydroxy-2,2,2-trifluoroethyl)-4-trifluoromethylthiopyrazole]		+ (active against 1 or more insects described above up to 100% mortality. This activity is indicated by a “+”)	+ (active against 1 or more insects described above up to 100% mortality. This activity is indicated by a “+”)
CCOC(OCC)c1c(SC(F)(F)F)c(C#N)nn1-c1c(Cl)cc(C(F)(F)F)cc1Cl [Compound 18, 3-Cyano-1-(2,6-dichloro-4-trifluoromethylphenyl)-5-diethoxymethyl-4-trifluoromethylthiopyrazole]	+ (active against 1 or more insects described above up to 100% mortality. This activity is indicated by a “+”)	+ (active against 1 or more insects described above up to 100% mortality. This activity is indicated by a “+”)	+ (active against 1 or more insects described above up to 100% mortality. This activity is indicated by a “+”)
CCOC(OCC)c1c(S(=O)(=O)C(F)(F)F)c(C#N)nn1-c1c(Cl)cc(C(F)(F)F)cc1Cl [Compound 19, 3-Cyano-1-(2,6-dichloro-4-trifluoromethylphenyl)-5-diethoxymethyl-4-trifluoromethylsulfonylpyrazole]	+ (active against 1 or more insects described above up to 100% mortality. This activity is indicated by a “+”)	+ (active against 1 or more insects described above up to 100% mortality. This activity is indicated by a “+”)	+ (active against 1 or more insects described above up to 100% mortality. This activity is indicated by a “+”)
CCOC(OCC)c1c([S+]([O-])C(F)(F)F)c(C#N)nn1-c1c(Cl)cc(C(F)(F)F)cc1Cl (centres unmarked) [Compound 20, 3-Cyano-1-(2,6-dichloro-4-trifluoromethylphenyl)-5-diethoxymethyl-4-trifluoromethylsulfinylpyrazole]	+ (active against 1 or more insects described above up to 100% mortality. This activity is indicated by a “+”)	+ (active against 1 or more insects described above up to 100% mortality. This activity is indicated by a “+”)	
C=C(OC(C)=O)c1c(S(=O)(=O)C(F)(F)F)c(C#N)nn1-c1c(Cl)cc(C(F)(F)F)cc1Cl [Compound 21, 3-Cyano-1-(2,6-dichloro-4-trifluoromethylphenyl)-5-(1-acetoxyethenyl)-4-trifluoromethylsulfonylpyrazole]	+ (active against 1 or more insects described above up to 100% mortality. This activity is indicated by a “+”)	+ (active against 1 or more insects described above up to 100% mortality. This activity is indicated by a “+”)	
